Source: the supplement of paper PMC10849652
This is one part of the list.

Chains of the proteins cited; added tags and fusions are not shown. Lines headed by an entry give the natural chain unless they say otherwise; changes in a name come on top.
UniProt Q9BQ24: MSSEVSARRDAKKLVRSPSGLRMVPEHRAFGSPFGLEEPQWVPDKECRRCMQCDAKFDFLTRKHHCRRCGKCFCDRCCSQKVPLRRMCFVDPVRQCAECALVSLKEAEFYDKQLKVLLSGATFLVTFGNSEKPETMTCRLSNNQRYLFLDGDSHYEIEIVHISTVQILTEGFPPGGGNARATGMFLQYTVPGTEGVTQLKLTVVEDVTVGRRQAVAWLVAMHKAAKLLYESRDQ
UniProt Q04917: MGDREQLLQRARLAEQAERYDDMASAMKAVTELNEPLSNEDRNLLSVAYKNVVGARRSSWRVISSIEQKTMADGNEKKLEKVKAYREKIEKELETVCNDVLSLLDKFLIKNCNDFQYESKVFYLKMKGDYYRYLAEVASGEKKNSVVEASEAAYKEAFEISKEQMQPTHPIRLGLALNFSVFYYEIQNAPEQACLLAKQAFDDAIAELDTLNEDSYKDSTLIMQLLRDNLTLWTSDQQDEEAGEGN
UniProt P37275: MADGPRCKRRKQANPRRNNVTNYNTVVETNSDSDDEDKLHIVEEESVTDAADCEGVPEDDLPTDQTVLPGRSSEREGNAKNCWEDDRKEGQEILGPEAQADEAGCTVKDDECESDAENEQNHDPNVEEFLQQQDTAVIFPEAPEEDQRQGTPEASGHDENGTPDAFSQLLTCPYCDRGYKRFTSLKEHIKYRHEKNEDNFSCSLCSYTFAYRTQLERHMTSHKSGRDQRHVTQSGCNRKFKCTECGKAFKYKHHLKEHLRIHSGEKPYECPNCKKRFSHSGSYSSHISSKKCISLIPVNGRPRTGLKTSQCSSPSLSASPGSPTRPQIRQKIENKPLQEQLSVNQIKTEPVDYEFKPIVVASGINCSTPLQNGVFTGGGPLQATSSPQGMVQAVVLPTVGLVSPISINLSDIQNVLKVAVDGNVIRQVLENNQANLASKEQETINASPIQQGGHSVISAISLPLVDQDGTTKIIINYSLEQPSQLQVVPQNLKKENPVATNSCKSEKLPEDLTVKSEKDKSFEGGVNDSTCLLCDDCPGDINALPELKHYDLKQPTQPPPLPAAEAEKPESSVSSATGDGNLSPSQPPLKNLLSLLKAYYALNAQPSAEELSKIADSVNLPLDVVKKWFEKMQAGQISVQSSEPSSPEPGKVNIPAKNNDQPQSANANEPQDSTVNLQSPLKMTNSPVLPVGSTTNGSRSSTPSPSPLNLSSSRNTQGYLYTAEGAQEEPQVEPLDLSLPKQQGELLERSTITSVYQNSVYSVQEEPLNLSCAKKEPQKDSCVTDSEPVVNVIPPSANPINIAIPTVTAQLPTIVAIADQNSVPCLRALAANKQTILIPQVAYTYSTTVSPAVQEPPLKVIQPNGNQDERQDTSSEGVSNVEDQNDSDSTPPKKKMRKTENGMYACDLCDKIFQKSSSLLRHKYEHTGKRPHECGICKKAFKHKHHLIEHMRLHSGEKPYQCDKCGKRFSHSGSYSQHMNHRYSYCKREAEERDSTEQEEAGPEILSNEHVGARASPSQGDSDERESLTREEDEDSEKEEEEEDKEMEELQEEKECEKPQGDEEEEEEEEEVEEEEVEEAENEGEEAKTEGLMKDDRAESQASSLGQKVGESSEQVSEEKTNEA
UniProt O43592: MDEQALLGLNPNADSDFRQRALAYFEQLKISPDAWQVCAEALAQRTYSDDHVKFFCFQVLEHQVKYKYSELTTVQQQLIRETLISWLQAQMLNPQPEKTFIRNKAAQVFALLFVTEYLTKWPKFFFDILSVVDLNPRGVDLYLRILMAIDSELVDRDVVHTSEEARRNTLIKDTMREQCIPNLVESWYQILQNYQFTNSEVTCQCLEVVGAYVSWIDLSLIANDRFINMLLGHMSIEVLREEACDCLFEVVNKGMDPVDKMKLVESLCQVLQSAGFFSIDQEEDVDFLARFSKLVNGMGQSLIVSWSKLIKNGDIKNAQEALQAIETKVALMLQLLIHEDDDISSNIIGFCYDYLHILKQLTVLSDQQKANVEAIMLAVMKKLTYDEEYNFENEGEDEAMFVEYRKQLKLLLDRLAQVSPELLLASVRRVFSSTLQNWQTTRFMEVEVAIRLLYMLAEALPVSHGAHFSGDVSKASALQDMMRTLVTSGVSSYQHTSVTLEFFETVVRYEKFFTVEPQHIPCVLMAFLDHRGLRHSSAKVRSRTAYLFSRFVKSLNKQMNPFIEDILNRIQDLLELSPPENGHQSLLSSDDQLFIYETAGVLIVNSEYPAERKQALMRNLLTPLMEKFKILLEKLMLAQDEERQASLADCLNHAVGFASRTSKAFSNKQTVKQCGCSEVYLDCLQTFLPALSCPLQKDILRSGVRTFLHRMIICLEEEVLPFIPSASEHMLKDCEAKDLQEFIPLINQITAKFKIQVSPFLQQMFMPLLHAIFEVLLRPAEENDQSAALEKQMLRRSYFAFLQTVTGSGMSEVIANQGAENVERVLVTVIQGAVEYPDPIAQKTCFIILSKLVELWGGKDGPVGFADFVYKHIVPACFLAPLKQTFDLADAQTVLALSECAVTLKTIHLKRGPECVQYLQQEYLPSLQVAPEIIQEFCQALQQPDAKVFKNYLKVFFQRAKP
UniProt O95070: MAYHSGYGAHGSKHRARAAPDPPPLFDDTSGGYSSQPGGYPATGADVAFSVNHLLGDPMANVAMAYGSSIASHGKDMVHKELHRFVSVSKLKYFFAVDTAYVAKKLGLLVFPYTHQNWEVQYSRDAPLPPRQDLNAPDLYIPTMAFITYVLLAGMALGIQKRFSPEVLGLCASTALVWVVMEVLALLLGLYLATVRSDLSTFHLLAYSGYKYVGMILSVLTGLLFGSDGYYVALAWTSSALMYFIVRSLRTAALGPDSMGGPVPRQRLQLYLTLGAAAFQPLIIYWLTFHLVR
UniProt Q8N4Q0: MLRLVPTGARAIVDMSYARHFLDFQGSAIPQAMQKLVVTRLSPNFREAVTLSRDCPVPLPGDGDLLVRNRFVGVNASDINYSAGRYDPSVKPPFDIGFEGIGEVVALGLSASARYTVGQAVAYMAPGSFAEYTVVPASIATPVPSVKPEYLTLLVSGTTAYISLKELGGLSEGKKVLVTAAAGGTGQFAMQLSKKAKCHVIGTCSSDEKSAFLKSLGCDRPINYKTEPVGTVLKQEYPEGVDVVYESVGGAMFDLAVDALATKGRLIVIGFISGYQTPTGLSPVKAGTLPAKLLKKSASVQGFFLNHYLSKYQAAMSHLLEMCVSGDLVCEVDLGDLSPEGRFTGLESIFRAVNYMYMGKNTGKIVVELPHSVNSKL
UniProt Q9HBF4: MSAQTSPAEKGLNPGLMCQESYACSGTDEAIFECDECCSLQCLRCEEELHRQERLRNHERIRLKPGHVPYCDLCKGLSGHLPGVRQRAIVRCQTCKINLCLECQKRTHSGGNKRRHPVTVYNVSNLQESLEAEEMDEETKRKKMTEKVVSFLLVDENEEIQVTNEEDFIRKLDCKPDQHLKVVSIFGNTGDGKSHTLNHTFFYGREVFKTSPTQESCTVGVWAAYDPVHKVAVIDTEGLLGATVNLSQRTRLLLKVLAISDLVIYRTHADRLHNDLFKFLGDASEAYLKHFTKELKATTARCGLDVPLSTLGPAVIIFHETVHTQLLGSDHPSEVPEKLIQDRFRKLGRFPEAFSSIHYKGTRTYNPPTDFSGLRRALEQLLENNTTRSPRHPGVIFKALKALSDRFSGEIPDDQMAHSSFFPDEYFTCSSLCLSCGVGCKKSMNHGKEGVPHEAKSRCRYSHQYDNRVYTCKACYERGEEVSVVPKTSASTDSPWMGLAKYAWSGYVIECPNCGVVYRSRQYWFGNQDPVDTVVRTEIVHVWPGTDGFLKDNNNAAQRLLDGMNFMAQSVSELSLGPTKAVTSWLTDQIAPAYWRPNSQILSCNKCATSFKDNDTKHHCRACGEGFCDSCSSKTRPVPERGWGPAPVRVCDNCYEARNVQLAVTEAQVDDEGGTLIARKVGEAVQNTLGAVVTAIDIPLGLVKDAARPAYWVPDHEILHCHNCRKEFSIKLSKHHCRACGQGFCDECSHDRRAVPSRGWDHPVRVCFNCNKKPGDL
UniProt Q8IY57: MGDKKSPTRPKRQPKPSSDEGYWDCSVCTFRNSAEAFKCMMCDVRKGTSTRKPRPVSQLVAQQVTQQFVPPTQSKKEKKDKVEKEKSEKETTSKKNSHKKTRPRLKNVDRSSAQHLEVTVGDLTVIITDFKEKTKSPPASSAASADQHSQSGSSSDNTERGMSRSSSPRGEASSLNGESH
UniProt Q9H5J0: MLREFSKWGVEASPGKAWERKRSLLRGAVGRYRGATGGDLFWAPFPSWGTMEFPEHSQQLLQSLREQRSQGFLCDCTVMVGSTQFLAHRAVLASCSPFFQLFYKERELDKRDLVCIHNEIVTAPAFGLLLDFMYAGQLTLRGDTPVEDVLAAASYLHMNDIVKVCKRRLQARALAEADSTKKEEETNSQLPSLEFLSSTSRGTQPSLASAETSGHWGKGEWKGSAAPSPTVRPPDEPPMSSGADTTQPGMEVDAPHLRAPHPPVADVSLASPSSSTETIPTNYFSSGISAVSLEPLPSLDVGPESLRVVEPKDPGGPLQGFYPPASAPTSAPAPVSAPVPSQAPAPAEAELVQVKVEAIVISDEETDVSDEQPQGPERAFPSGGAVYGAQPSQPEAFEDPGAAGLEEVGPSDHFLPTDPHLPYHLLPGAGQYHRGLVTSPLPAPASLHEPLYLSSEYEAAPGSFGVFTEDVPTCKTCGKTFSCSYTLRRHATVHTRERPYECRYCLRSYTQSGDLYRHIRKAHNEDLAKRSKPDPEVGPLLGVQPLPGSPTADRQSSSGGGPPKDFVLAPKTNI
UniProt Q9BW85: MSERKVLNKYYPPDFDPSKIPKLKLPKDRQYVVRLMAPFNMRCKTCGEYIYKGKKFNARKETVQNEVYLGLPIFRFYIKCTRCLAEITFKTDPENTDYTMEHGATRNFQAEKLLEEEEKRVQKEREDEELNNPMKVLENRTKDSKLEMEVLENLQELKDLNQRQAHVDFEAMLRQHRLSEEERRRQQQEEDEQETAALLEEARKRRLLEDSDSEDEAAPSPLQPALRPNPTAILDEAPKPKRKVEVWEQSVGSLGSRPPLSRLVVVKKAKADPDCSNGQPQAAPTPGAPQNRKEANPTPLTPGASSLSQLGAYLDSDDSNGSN
UniProt Q8IWR0: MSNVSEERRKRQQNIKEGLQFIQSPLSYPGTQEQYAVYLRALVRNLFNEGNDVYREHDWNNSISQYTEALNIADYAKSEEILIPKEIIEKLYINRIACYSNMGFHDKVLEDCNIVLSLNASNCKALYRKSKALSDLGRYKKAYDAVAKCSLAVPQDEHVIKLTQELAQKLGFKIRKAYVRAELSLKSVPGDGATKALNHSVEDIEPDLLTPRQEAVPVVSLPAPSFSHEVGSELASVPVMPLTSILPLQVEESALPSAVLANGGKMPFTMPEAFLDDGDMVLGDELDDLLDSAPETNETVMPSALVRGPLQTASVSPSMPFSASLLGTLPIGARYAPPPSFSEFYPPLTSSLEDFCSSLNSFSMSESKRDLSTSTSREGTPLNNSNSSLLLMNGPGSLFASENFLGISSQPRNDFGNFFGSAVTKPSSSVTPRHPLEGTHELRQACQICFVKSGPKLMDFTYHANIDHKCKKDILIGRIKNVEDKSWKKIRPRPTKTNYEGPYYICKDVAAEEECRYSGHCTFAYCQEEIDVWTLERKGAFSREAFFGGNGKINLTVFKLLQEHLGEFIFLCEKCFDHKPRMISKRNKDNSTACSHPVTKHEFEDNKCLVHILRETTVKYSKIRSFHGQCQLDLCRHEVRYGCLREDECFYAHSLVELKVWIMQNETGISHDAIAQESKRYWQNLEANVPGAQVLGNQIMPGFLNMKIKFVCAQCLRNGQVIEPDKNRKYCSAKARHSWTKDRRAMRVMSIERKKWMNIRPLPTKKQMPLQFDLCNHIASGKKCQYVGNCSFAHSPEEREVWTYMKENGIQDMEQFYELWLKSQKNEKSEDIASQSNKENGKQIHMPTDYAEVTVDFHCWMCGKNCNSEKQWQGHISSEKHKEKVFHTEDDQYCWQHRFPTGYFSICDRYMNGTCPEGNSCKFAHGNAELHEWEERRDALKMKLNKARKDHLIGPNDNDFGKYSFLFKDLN
UniProt Q8N680: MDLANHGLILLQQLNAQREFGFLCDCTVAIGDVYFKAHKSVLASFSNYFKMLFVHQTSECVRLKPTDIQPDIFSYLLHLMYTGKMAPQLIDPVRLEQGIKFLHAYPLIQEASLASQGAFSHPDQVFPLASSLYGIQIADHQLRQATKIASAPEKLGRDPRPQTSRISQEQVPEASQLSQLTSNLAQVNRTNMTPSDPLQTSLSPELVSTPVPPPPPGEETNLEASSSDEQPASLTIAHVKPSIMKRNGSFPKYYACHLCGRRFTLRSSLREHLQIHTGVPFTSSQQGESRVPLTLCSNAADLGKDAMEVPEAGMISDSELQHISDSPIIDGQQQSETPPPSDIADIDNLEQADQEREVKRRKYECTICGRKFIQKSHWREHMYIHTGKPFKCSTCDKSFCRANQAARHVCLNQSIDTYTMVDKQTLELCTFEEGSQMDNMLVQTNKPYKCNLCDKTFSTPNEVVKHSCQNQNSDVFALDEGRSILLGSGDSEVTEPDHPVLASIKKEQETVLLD

compound: COc1cc2nc(-c3cc(F)ccc3O)nc(N[C@@H]3CNC[C@H]3C(C)(C)O)c2cc1OC; test: log2 fold change, soluble protein after heating vs DMSO (PISA); higher = thermal stabilisation; K562 lysate, 10 uM; active = over 0.2 and 3.5 SD of the protein, either way, in both replicates (recomputed)
How it was run: (§1)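 K562 pellets were dounce-homogenised in PBS pH 7.4 with 1 mM MgCl2, and the crude extract at 1 mg/mL protein was treated with 10 μM compound for 30 min. Aliquots were heated for 3 min across 48°C-58°C, pooled, and brought to 0.5% NP-40 at 4°C; soluble protein was the supernatant after 21,000xg for 90 min. Soluble protein was quantified by TMTpro 16plex LC-MS/MS with channel sums equalised, and reported as log2 fold change in thermal stability against DMSO controls, with values from duplicates.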

log2 fold change, inactive:
ZDHHC4 (UniProt Q9NPG8) 0.093
ZFYVE21 isoform 2 (UniProt Q9BQ24) 0.083
ZCRB1 (UniProt Q8TBF4) 0.047
ZDHHC2 (UniProt Q9UIJ5) -0.052
ZDHHC14 (UniProt Q8IZN3) 0.026
YWHAH (UniProt Q04917) 0.004
ZEB1 isoform 2 (UniProt P37275) -0.039
ZFYVE19 (UniProt Q96K21) 0
ZFP64 isoform 5 (UniProt Q9NTW7) -0.083
ZBTB24 (UniProt O43167) -0.062
XPOT (UniProt O43592) 0.005
ZDHHC17 (UniProt Q8IUH5) -0.032
ZBTB14 (UniProt O43829) -0.018
YIF1A (UniProt O95070) -0.02
ZADH2 (UniProt Q8N4Q0) -0.042
ZG16B (UniProt Q96DA0) 1.4
ZFPL1 (UniProt O95159) 0.311
ZBTB7A (UniProt O95365) -0.097
ZFYVE1 (UniProt Q9HBF4) 0.018
ZFAND3 (UniProt Q9H8U3) -0.023
YAF2 isoform 5 (UniProt Q8IY57) 0.026
XPNPEP3 (UniProt Q9NQH7) 0.013
ZBTB3 (UniProt Q9H5J0) -0.15
ZC3H12C isoform 2 (UniProt Q9C0D7) -0.204
ZFAND5 (UniProt O76080) 0.042
ZBTB1 (UniProt Q9Y2K1) 0.237
ZBTB10 (UniProt Q96DT7) 0.003
ZFAND6 (UniProt Q6FIF0) -0.028
ZBTB40 (UniProt Q9NUA8) -0.038
YJU2 (UniProt Q9BW85) -0.006

compound: COc1cc2ncnc(Nc3ccc(F)c(Cl)c3)c2cc1OCCCN1CCOCC1 [gefitinib]; test: as above
How it was run: as §1

log2 fold change, inactive:
YAE1 (UniProt Q9NRH1) 0.096
ZC3H7A (UniProt Q8IWR0) 0.01
ZDHHC4 (UniProt Q9NPG8) -0.203
ZFYVE21 isoform 2 (UniProt Q9BQ24) 0.014
ZCRB1 (UniProt Q8TBF4) -0.073
ZFP36L2 (UniProt P47974) 0.301
ZDHHC14 (UniProt Q8IZN3) -0.074
YWHAH (UniProt Q04917) 0.002
ZFYVE19 (UniProt Q96K21) 0.019
ZBTB24 (UniProt O43167) -0.253
XPOT (UniProt O43592) 0.01
ZDHHC17 (UniProt Q8IUH5) 0.24
ZBTB14 (UniProt O43829) 0.136
ZADH2 (UniProt Q8N4Q0) -0.169
ZG16B (UniProt Q96DA0) 0.239
ZFPL1 (UniProt O95159) -0.043
ZFYVE1 (UniProt Q9HBF4) 0.151
XRCC3 (UniProt O43542) -0.024
XPNPEP3 (UniProt Q9NQH7) -0.03
ZFAND5 (UniProt O76080) -0.058
ZFAND6 (UniProt Q6FIF0) 0.014
ZBTB2 (UniProt Q8N680) -0.012
ZBTB40 (UniProt Q9NUA8) -0.246
YJU2 (UniProt Q9BW85) -0.024
